PMC4281712, “ATPase-dependent auto-phosphorylation of the open condensin hinge diminishes DNA binding” (Open Biology, 2014)

biological target: T1, Cut14/SMC2 tagged with 3HA-His6 (wild type) (S. pombe) (UniProt P41003); assay: co-purification by Ni affinity chromatography; Cut3 (wild type, mutant or truncated) and His6-tagged Cut14 overproduced together in S. pombe; complex isolated on Ni-beads through the polyhistidine tag; bands seen by SDS-PAGE with CBB or Ponceau S stain
T1 sequence: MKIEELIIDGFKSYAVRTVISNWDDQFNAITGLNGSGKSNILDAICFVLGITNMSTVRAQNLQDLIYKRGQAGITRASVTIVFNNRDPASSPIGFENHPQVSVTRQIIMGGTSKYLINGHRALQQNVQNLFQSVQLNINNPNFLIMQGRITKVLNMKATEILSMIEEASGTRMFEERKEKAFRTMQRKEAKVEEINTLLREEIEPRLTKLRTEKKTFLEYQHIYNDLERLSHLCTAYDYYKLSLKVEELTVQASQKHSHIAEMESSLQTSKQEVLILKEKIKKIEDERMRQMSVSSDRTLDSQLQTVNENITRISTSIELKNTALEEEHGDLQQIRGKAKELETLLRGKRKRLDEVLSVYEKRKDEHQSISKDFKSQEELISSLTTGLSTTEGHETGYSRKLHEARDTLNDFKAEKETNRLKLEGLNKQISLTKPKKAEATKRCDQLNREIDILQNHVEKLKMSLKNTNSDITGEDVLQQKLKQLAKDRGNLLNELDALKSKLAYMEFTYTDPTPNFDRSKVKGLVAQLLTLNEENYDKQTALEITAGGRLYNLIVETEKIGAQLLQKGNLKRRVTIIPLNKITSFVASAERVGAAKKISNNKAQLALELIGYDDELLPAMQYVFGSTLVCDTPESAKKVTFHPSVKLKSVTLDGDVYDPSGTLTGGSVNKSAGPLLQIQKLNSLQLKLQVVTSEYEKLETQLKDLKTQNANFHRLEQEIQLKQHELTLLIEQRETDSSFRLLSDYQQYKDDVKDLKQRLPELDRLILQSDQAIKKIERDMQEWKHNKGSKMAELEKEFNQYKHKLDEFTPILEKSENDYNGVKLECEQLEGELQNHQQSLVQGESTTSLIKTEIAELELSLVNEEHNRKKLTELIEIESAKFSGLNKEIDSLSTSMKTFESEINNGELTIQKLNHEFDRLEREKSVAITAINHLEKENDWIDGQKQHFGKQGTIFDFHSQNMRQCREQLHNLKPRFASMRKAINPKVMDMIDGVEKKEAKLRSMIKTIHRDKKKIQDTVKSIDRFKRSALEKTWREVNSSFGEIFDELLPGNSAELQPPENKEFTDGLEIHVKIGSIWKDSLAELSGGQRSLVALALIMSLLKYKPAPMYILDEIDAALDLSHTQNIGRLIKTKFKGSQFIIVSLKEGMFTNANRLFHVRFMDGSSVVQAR

binding, binds:
Cut3ΔC (S. pombe) (domain or fragment)
Cut3ΔN (S. pombe) (domain or fragment)
Cut3ΔNC (S. pombe) (domain or fragment)

No constants are given. Whether binding was seen depends on the method and setting. In cells and extracts the contact can be indirect. A result given as binding can be weak or reduced; the word gives no strength. Where a sequence is shown, tags or fusion partners need not be part of it.
